Where “and” joins values, the source holds several entries; their conditions need not be identical. Identical values can stand only once. Some of the results follow. Single values are uncertain here, since repeats match poorly.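 HEK293T cells were given each compound shortly before transfection with a reporter in which red mCherry is followed by the SARS-CoV-2 frameshift element and then GFP in the −1 frame, so GFP appears only after frameshifting.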

The test system of the experiment is SARS-CoV-2 -1 PRF reporter mCherry-FSE-GFP(-1). The experiment is described as follows: percent effect, decrease of GFP/mCherry ratio (-1 PRF reporter) relative to controls; higher = stronger frameshift inhibition. The settings on record: 10 µM; 24 h; HEK293T.
Take `COc1cc(NC(C)CCCN)c2ncccc2c1` (centres undefined) [primaquine]: the percent effect was -2.38% and -11.7%. `COC(=O)C1=C(C)NC(C)=C(C(=O)OCCN(C)Cc2ccccc2)C1c1cccc([N+](=O)[O-])c1` (centres undefined) [nicardipine]: the percent effect was 2.31% and 1.48%. Regarding `NS(=O)(=O)c1cc2c(cc1Cl)NC(C(Cl)Cl)NS2(=O)=O` (centres undefined) [trichlormethiazide], the percent effect is -0.687% and 1.05%. Take `CC(C)COCC(CN(Cc1ccccc1)c1ccccc1)N1CCCC1` (centres undefined) [bepridil]: the percent effect is 1.24% and 2%. Under `CCN1CCCC1CNC(=O)c1cc(S(=O)(=O)CC)c(N)cc1OC` (centres undefined) [amisulpride] stands 6.04% and -6.25%; under `Nc1nc(Cl)nc2c1ncn2[C@@H]1O[C@H](CO)[C@@H](O)[C@@H]1F` [clofarabine], 1.55% and 2.88%. `C[C@H]1COc2c(N3CCN(C)CC3)c(F)cc3c(=O)c(C(=O)O)cn1c23` [levofloxacin]: the percent effect is -0.732% and 0.904% and 9.46%. Under `COc1cc(NS(=O)(=O)c2ccc(N)cc2)nc(OC)n1` [sulfadimethoxine] stands -5.52% and -1.28%. For `CC(C)NCC(O)COc1ccc(CC(N)=O)cc1` (centres undefined) [atenolol], the percent effect is 2.87% and -10.2%. In the case of `Clc1ccc2c(c1)C(N1CCNCC1)=Nc1ccccc1O2` [amoxapine], the percent effect is -3.01% and 0.878%. For the compound `CC(=O)N[C@@H](CS)C(=O)O` [acetylcysteine], the percent effect was 1.55% and -4.38%.

`CN(C)CCCN1c2ccccc2CCc2ccccc21` [imipramine]: the percent effect was 3.29% and -5.95%.

For `CO/N=C1\CN(c2nc3c(cc2F)c(=O)c(C(=O)O)cn3C2CC2)CC1CN` (centres undefined) [gemifloxacin], the percent effect was -2.72% and 2.43%.

As to `C[C@]12C=CC(=O)C=C1CC[C@H]1[C@@H]3C[C@@H](O)[C@](O)(C(=O)CO)[C@@]3(C)C[C@H](O)[C@@]12F` [triamcinolone], the percent effect is -5.86% and 10.4%.
